From PubChem BioAssay AID588499 (NMMLSC, 2011)
About 610 (0.17%) of roughly 360,000 compounds were called active. This list was built around the results that the source calls inconclusive (neither active nor inactive); the mix of calls is not that of the screen. Cut-off read from the data, not from the text of the source: active = inhibition above about 30%; inconclusive = no clear call, values can overlap the other calls; inactive = below that.

The compounds below were run on Botulinum neurotoxin type A light chain protease (Clostridium botulinum A str. ATCC 3502) (assay: blockers of BoNT/A LC substrate cleavage – biochemical, flow cytometry, MLPCN library, primary screen (AID 588499; note: plate controls were buffer without enzyme for full effect and enzyme alone for no effect)). Details: multiplex microsphere protease substrate cleavage, at 10 µM, hits give high values.

SMILES | inhibition
COc1ccccc1CNC(=O)COC(=O)c1ncc(Cl)c(Cl)c1Cl | inconclusive: 3.5%
COc1ccc(-c2oc3c(OC)c(OC)c(OC)c(O)c3c(=O)c2OC)cc1OC | active: 38.6%
CCOC(=O)[C@]1(C#N)[C@@H]2C=CC(C(N)=O)=CN2[C@@H](C(N)=O)[C@@H]1c1ccc(F)cc1 | inconclusive: 11.7%
Cc1ccc(Cl)cc1N(CC(=O)NC1CCCCC1)S(C)(=O)=O | inconclusive: 2.2%
CCOC(=O)/C(=N/Nc1ccccc1OC)N1CCCc2ccccc21 | inconclusive: -0.7%
Clc1ccc(-c2cnc3n2CCC3)cc1 | inconclusive: 0.9%
COc1ccc(-c2nc3c(n2O)CCC/C3=N\O)cc1 | inconclusive: 3.9%
CCCOc1ccc(/C=C/C(=O)Nc2ccc([N+](=O)[O-])cc2C)cc1OC | inconclusive: 0.3%
O=c1c(O)c(-c2cccs2)oc2ccc(Cl)cc12 | active: 34.8%
COc1ccc(Cl)cc1NC(=O)NCC1CCN(C(=O)OC(C)(C)C)CC1 | inconclusive: -15.5%
CCOc1cc(C=O)ccc1OCCSc1ccc(Cl)cc1 | inconclusive: -1.6%
Cc1cc(=O)oc2cc(OC(=O)c3ccco3)ccc12 | inactive: 0.5%
CC(=O)c1cc(NC(=O)c2cccc(C(F)(F)F)c2)c(=O)oc1/C=C/N(C)C | inconclusive: -8%
CCCOc1ccc(N2C(=O)CC(N(C(=O)c3ccco3)c3ccc(OCCC)cc3)C2=O)cc1 (stereo not given) | inconclusive: -4.3%
CCCCCCOc1ccc(OC(=O)c2cccnc2)cc1 | inconclusive: -1.6%
COc1ccccc1NC(=O)c1ccc(COc2ccccc2OC)cc1 | inconclusive: 7.5%
CCC(=O)N1CCc2cc(S(=O)(=O)NC(C(=O)N3CCN(c4ccc(F)cc4)CC3)C(C)C)ccc21 (stereo not given) | inactive: 0%
O=C(CN1CCCC1)Nc1sc2c(c1C(=O)Nc1ccc(Br)cc1)CCC2 | inactive: 1.5%
COc1ccc(CC(=O)Nc2ccc(/C(C)=N/NC(=O)c3cccc([N+](=O)[O-])c3)cc2)cc1 | inactive: -2.2%
CCOC(=O)C1CCN(Cc2cc(C(C)(C)C)c(O)c(C(C)(C)C)c2)CC1 | inactive: 0%
Oc1cccc(/C=N/NP(=S)(c2ccccc2)c2ccccc2)c1 | inconclusive: -0.9%
CC1S/C(=N/N=C/c2cccc([N+](=O)[O-])c2)NC1=O (stereo not given) | inconclusive: -14.7%
CSc1nc(N2CCN(C)CC2)c2c(c1C#N)CC(C)(C)OC2 | inconclusive: -50.8%

A run of entries from further up:
SMILES | inhibition
COc1ccc(-c2nc3c(n2O)CCC/C3=N\O)cc1 | inconclusive: 3.9%
CCCOc1ccc(/C=C/C(=O)Nc2ccc([N+](=O)[O-])cc2C)cc1OC | inconclusive: 0.3%
O=c1c(O)c(-c2cccs2)oc2ccc(Cl)cc12 | active: 34.8%
COc1ccc(Cl)cc1NC(=O)NCC1CCN(C(=O)OC(C)(C)C)CC1 | inconclusive: -15.5%

(next part)

SMILES | inhibition
NC(=O)C1CCN(C(=O)C(=O)c2cn(CC(=O)N3CCCCCC3)c3ccccc23)CC1 | active: 39.3%
CCOc1cc(C(N)=O)cc(Br)c1OC | inactive: -0.3%
Cc1cc2cc(CNC(=O)Cc3ccc([N+](=O)[O-])cc3)ccc2[nH]1 | active: 58.4%
CC(C)COC(=O)CCn1[nH]c(=O)c2ccccc2c1=O | inconclusive: -0.3%
CCOC(=O)c1ccccc1NC(=O)COC(=O)c1ccccc1C(=O)N(C)c1ccccc1 | inconclusive: 0%
CC(=O)Nc1nc(C)c(Oc2ccc(Cl)cc2)c(=O)[nH]1 | inconclusive: -1.9%
Cc1nc2c(=O)n(-c3ccc(F)cc3F)nc(C)c2s1 | inconclusive: 20.8%
Cc1cc2nnc(SCC(=O)N3C(C)CCCC3C)n2c(N)n1 (stereo not given) | inconclusive: 0.4%
CC(=O)Nc1ccc(S(=O)(=O)N2CCc3ccccc3C2)cc1 | inactive: -0.5%
Cc1ccc(-c2c3c([nH]c(=S)c2C#N)CCCC3)o1 | inconclusive: -3.9%
Cc1cc(N2CCCC2)c(F)cc1/C=C\[N+](=O)[O-] | active: 61.5%
CCCc1cc(=O)oc2c3c(cc(OCC(=O)N4CCC[C@H]4C(=O)O)c12)OC(C)(C)CC3 | inactive: -1.1%
CC(=O)Nc1ccc(Sc2ccccc2C(=O)O)cc1 | inactive: -3.8%
COc1ccc(NC(=O)CN(C)C(=O)C2=NN(c3ccccc3)C(=O)CC2)cc1 | inactive: 0.6%
CCN1C(=O)C2(C(C(=O)c3cc4ccccc4o3)=C(O)C(=O)N2CCCN2CCOCC2)c2ccccc21 (stereo not given) | inactive: -0.6%
Cc1cc(C)n2nc(SCC(=O)c3cc(C)n(-c4cc(C)on4)c3C)nc2n1 | inconclusive: -2.1%
COc1ccc(CN2C(=O)CSC2c2ccccn2)cc1 (stereo not given) | inconclusive: 3.2%
CCOc1ccc(OCC)c(-c2c(=O)n(OCc3ccccc3C(=O)OC)c3ccccc3[n+]2[O-])c1 | inactive: 1.2%
CC(NC(=O)CNC(=O)c1cccc(Cl)c1)c1ccccc1 (stereo not given) | inactive: -5.1%
COc1ccc(N(CCC(=O)O)S(=O)(=O)c2ccc(C)c(C)c2)cc1 | inactive: -1.3%
Cc1cc(Cl)c(OCCCSc2nc(C)cc(=O)[nH]2)c(Br)c1 | inconclusive: 1.1%
CC1CCCN(c2ccc3nncn3n2)C1 (stereo not given) | inactive: 0.2%
CC(C)CNC(=S)NC1CCCC1 | inconclusive: 0.9%

SMILES | inhibition
Cc1ccc(-n2c(-c3ccco3)nc3nc4ccccc4nc32)cc1F | inconclusive: 4.5%
CC(C)S(=O)(=O)c1csc(C(=O)NN)c1-n1cccc1 | inconclusive: -55.4%
O=S(=O)(c1ccc(N2CC=C(c3ccccc3)CC2)nc1)N1CCCC1 | inconclusive: -3.1%
CCN1CCN(Cc2oc(CO)cc(=O)c2O)CC1 | inconclusive: 2.3%
Cc1cccc(C(C(=O)NC2CCCC2)N(C(=O)c2csnn2)C2CC2)c1 (stereo not given) | inactive: -1.4%
O=[N+]([O-])c1cccc(-c2noc(-c3ccco3)n2)c1 | inconclusive: 10.1%
O=C(O)C(c1ccccc1)N1C(=O)/C(=C\c2ccc(-c3ccccc3Cl)o2)SC1=S (stereo not given) | active: 41.1%
CCOC(=O)/C(C#N)=C/C1=C(N2CCOCC2)C(C)(C)OCC1 | inconclusive: -24.8%
O=C(COc1ccc(F)cc1)NCC1CCCO1 (stereo not given) | inconclusive: -4.9%
Cc1ccc2oc(=O)c3cnn(CC(=O)Nc4cc(-c5cccc(F)c5)no4)c3c2c1 | inactive: 0.6%
COc1ccc(Oc2cccc(Cl)c2CNC(=O)CCC(=O)O)cc1 | inconclusive: 9.4%
CCOP(=O)(Cc1ccc(C(C)(C)CC(C)=O)o1)OCC | inconclusive: 16.9%
COc1c(O)cccc1-c1nnn(CCC(=O)OCC(=O)c2ccccc2)n1 | inconclusive: -1.9%
COc1ccc(C2OC(=O)C(C)(C)C(=O)C2(C)C)cc1OC (stereo not given) | inconclusive: 7.7%
CC(C)(O)C#Cc1ccc(CN2CCCC(CO)(Cc3cccc(Cl)c3)C2)cc1 (stereo not given) | inactive: 0.7%
COCCn1c(SCc2nc3ccccc3c(=O)[nH]2)nnc1-c1ccncc1 | inconclusive: -2.8%
CN(C)c1ccc(/C=C2/C[N+](C)(C)C/C(=C/c3ccc(N(C)C)cc3)C2=O)cc1 | active: 85.5%
Cc1ccccc1-c1nnc(SCC(=O)Nc2cccc(C)c2C)o1 | inconclusive: 6%
Cc1cccc(C(=O)Oc2coc(CSc3nnc(NC(=O)C4CC4)s3)cc2=O)c1 | active: 54.8%
Cc1cc(C)nc(NS(=O)(=O)c2ccc(N3C(=O)C4C5C=CC(C5)C4C3=O)cc2)n1 (stereo not given) | inactive: 1%
CCCCC(c1nc2ccccc2[nH]1)n1c(=O)c(-c2ccccc2)nc2cc(C)c(C)cc21 (stereo not given) | active: 30.3%
CC(C)OC(=O)CC(=O)CSc1nc2c(c(-c3cccs3)c1C#N)CCC2 | active: 29.5%
Cc1cc(C(=O)N/N=C/c2ccccc2Br)no1 | inactive: -0.6%

SMILES | inhibition
CCN1CCn2c1nc(N1CCOCC1)nc2=O | inconclusive: -2.8%
COc1cccc(CN2C(=O)CCC2(C)C(=O)NC2CCCCCC2)c1 (stereo not given) | inconclusive: 2.4%
CC1(C)Cc2c(c(N3CCOCC3)nc3sc4c(NCc5ccco5)nnnc4c23)CS1 | inactive: 0%
CCOC(=O)c1ccc(Oc2cc(C)nc(SC)n2)cc1 | inconclusive: -2.3%
Cc1ccc[n+](CC(=O)Nc2ccc(C)c(C)c2)c1 | inconclusive: 1.9%
Cc1c(NC(=O)C(C)Sc2ccc3ccccc3n2)c(=O)n(-c2ccccc2)n1C (stereo not given) | inactive: 0.3%
CCCNC(=O)c1cn(CC)c2cc(N3CCN(C(=O)c4ccco4)CC3)c(F)cc2c1=O | inactive: 0.8%
C/C(CC(=O)Nc1cc(C)ccn1)=N\NC(=O)C(=O)Nc1cccc(C)c1 | inactive: 0%
Cc1ccc(-n2c(O)c(C=NC3CCS(=O)(=O)C3)c3ccccc3c2=O)c(C)c1 (stereo not given) | inconclusive: -12.5%
O=C(OCC#CCSc1nnc(-c2cccc3ccccc23)o1)c1ccco1 | inconclusive: -0.1%
O=C(NCC12CC3CC(C1)CC(CNC(=O)N1CCCC1)(C3)C2)N1CCCC1 | inconclusive: -1.9%
CCOC(=O)C1CCN(C(=O)N(C)C)CC1 | inactive: 0.1%
Cc1ccc(Cn2c(SCC(=O)N(C)C3CCS(=O)(=O)C3)nc3ccccc3c2=O)cc1 (stereo not given) | inconclusive: 2.5%
FC(F)(F)c1ccc(-c2nnc(-c3ccccn3)c(-c3ccccn3)n2)nc1 | inconclusive: 15.3%
CCOC(=O)/C(C#N)=C/c1cc2ccccc2nc1N1CCCCC1 | active: 30.9%
O=C(COC(=O)c1ccccc1-n1cnnn1)c1ccc(F)cc1 | inconclusive: 4.2%
CC(C)C(=O)N1CCN(c2ccccc2NC(=O)c2cccc3ccccc23)CC1 | inconclusive: -22.8%
CN1CC2(C(=O)c3ccccc3)CN(C)CC(C(=O)c3ccccc3)(C1)C2 | inconclusive: -0.5%
O=S1(=O)N=C(Nc2nncs2)c2ccccc21 | inconclusive: 1%
CC(C)C(=O)c1cn(CC(=O)N2CCCc3ccccc32)c2ccccc12 | inconclusive: 2.4%
CN(Cc1ccc(Cl)c(Cl)c1)C(=O)C1=CC=CN2CCS(=O)(=O)N=C12 | inactive: 0.2%

Single entries from the results shown.
In inhibition, O=C(OCC#CCSc1nnc(-c2cccc3ccccc23)o1)c1ccco1 shows inconclusive: -0.1%
In inhibition, CC(C)C(=O)c1cn(CC(=O)N2CCCc3ccccc32)c2ccccc12 shows inconclusive: 2.4%
In inhibition, CCOC(=O)c1ccc(Oc2cc(C)nc(SC)n2)cc1 shows inconclusive: -2.3%
